Measurements reported in PubChem BioAssay AID1259264 (Sanger Institute, 2017).

Aim: 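Kinases whose loss cuts CL40 colorectal cancer cell survival, alone or with drugs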 (primary screen)
Cell system: CL40 human colorectal cancer cells
Reagents: siRNA pool against human genes
Treatment: DMSO, or an anchor drug: BYL719 at 1 µM, cetuximab at 5 µg/ml, or trametinib at 10 nM
Read-out: 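Viability as a fraction of non-targeting pool control (replicates averaged), control-based robust z-score, plus averaged synergy for each drug: BYL719 1 µM, cetuximab 5 µg/ml, trametinib 10 nM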
Scale: robust z-score, siRNA alone and viability, siRNA alone: higher = more viable cells
Units: viability, siRNA alone in fraction of control
Hit rule: 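a gene counts as essential when knock-down without drug gives a robust z-score below -3, meaning fewer cells; synergy scores play no part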
Calls: active = essential (lowers viability alone); inactive = not essential
Here is an unselected part of 794 deposited reagents. Over the whole deposit, 15 (1.9%) were called active. 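Calls rest on knock-down alone at z-score below -3; synergy scores with the three drugs do not decide them.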 No viability above 1 is reported: the scale is capped. Further read-outs or replicates are left out here. Not stated in the record: the amount of reagent, the time to read-out.

With NR4A2 (nuclear receptor subfamily 4 group A member 2), what does the deposit list?
robust z-score, siRNA alone: 0.539; viability, siRNA alone: 1; Call: inactive

For IP6K1 (inositol hexakisphosphate kinase 1), what was measured?
robust z-score, siRNA alone: 0.539; viability, siRNA alone: 1; Call: inactive

For NUP62 (nucleoporin 62), what does the deposit list?
robust z-score, siRNA alone: -1.15; viability, siRNA alone: 0.879; Call: inactive

What is on record for PIP4K2A (phosphatidylinositol-5-phosphate 4-kinase type 2 alpha)?
robust z-score, siRNA alone: 0.539; viability, siRNA alone: 1; Call: inactive

What did the screen give for ERBB2 (erb-b2 receptor tyrosine kinase 2)?
robust z-score, siRNA alone: 0.539; viability, siRNA alone: 1; Call: inactive

What is on record for DLG2 (discs large MAGUK scaffold protein 2)?
robust z-score, siRNA alone: 0.539; viability, siRNA alone: 1; Call: inactive

For GRK4 (G protein-coupled receptor kinase 4), what does the deposit list?
robust z-score, siRNA alone: 0.539; viability, siRNA alone: 1; Call: inactive

Which result is listed for NTRK1 (neurotrophic receptor tyrosine kinase 1)?
robust z-score, siRNA alone: 0.539; viability, siRNA alone: 1; Call: inactive

A run of entries taken from the entries so far:
NUP62 (nucleoporin 62) — robust z-score, siRNA alone = -1.15; viability, siRNA alone = 0.879; Call = inactive
PIP4K2A (phosphatidylinositol-5-phosphate 4-kinase type 2 alpha) — robust z-score, siRNA alone = 0.539; viability, siRNA alone = 1; Call = inactive

The listing continues:
With TNK1 (tyrosine kinase non receptor 1), what does the deposit list?
robust z-score, siRNA alone: 0.539; viability, siRNA alone: 1; Call: inactive

What did the screen give for PRKACA (protein kinase cAMP-activated catalytic subunit alpha)?
robust z-score, siRNA alone: 0.539; viability, siRNA alone: 1; Call: inactive

How did the screen score EPHA4 (EPH receptor A4)?
robust z-score, siRNA alone: 0.511; viability, siRNA alone: 0.998; Call: inactive

What did the screen give for SBK1 (SH3 domain binding kinase 1)?
robust z-score, siRNA alone: 0.539; viability, siRNA alone: 1; Call: inactive
